Measurements: doi:10.1101/2022.11.03.515106 (bioRxiv, 2022)
Results are given in words; binding and its absence hold for the method and conditions named. In cells and extracts the contact can be indirect. A result given as binding can be weak or reduced; the word gives no strength.

Key:
[1] = biological target: Flag-TTDN1 lacking the N-terminus (deletion analysis, Figure 2d-e) (human); assay: co-IP
[2] = biological target: Flag-TTDN1 CR1-2 domain (human); assay: co-IP

B1: endogenous DBR1 (enzyme, UniProt Q9UK59 1-544)
chain: MRVAVAGCCHGELDKIYETLALAERRGPGPVDLLLCCGDFQAVRNEADLRCMAVPPKYRHMQTFYRYYSGEKKAPVLTLFIGGNHEASNHLQELPYGGWVAPNIYYLGLAGVVKYRGVRIGGISGIFKSHDYRKGHFECPPYNSSTIRSIYHVRNIEVYKLKQLKQPIDIFLSHDWPRSIYHYGNKKQLLKTKSFFRQEVENNTLGSPAASELLEHLKPTYWFSAHLHVKFAALMQHQAKDKGQTARATKFLALDKCLPHRDFLQILEIEHDPSAPDYLEYDIEWLTILRATDDLINVTGRLWNMPENNGLHARWDYSATEEGMKEVLEKLNHDLKVPCNFSVTAACYDPSKPQTQMQLIHRINPQTTEFCAQLGIIDINVRLQKSKEEHHVCGEYEEQDDVESNDSGEDQSEYNTDTSALSSINPDEIMLDEEEDEDSIVSAHSGMNTPSVEPSDQASEFSASFSDVRILPGSMIVSSDDTVDSTIDREGKPGGTVESGNGEDLTKVPLKRLSDEHEPEQRKKIKRRNQAIYAAVDDDDDDAA
B1 was tested, and the binding [1] was “binds” and the binding [2] was “binds”.
